Test results reported in the supplement of paper PMC7666118.
This is one part of the list.

By UniProt entry, the sequences of proteins in these tests, tags left out. Where a name states a change or a piece, a line headed by the entry shows the natural chain unless it says otherwise.
UniProt Q96A65: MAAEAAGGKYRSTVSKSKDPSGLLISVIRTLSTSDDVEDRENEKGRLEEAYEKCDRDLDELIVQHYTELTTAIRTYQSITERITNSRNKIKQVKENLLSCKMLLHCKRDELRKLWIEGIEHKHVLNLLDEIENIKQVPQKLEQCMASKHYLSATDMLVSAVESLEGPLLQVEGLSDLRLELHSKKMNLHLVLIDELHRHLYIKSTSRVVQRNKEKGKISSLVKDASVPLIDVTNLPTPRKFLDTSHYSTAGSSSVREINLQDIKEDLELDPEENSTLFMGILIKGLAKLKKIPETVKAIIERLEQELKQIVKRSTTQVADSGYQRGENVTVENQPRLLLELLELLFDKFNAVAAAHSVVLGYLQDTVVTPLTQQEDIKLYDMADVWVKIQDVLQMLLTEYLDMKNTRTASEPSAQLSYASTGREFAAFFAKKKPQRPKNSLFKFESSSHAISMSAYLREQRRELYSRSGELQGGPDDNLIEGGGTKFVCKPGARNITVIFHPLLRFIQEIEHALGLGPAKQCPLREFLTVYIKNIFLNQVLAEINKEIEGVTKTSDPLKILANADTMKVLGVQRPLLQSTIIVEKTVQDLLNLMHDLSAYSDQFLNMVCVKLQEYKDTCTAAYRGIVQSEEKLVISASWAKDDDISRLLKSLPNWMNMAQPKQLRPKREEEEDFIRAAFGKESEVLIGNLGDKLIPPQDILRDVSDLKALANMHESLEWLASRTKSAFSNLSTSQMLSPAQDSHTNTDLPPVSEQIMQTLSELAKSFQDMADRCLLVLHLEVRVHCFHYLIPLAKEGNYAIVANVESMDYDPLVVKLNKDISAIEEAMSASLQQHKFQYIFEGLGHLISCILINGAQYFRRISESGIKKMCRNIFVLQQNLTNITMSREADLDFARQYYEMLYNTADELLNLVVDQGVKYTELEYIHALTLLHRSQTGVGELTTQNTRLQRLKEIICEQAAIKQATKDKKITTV
UniProt P02794, whole entry: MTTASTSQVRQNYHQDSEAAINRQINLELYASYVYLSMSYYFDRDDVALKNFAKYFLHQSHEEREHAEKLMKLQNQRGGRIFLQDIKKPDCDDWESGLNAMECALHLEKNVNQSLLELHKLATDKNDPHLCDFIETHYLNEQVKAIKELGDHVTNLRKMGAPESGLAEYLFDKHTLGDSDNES
UniProt Q96ME1: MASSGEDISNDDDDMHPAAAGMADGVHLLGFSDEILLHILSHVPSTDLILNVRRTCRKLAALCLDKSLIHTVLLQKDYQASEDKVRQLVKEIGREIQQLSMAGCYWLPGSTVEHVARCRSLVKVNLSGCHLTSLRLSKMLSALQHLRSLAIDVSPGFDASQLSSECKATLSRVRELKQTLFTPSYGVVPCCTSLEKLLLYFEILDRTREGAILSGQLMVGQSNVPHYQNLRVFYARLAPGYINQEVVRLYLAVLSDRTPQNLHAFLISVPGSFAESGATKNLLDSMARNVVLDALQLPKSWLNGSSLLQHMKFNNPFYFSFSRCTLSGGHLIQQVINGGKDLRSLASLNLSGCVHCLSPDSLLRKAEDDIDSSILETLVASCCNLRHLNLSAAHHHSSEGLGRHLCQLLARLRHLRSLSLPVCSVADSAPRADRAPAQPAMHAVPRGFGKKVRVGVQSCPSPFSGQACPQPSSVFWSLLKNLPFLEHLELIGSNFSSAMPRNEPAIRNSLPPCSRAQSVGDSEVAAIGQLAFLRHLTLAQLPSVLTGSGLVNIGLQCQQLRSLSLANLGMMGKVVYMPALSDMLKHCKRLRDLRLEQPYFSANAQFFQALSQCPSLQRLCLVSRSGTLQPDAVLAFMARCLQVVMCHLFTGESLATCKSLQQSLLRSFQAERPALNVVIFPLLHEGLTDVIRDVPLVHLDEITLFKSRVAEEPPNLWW
UniProt Q96CS3: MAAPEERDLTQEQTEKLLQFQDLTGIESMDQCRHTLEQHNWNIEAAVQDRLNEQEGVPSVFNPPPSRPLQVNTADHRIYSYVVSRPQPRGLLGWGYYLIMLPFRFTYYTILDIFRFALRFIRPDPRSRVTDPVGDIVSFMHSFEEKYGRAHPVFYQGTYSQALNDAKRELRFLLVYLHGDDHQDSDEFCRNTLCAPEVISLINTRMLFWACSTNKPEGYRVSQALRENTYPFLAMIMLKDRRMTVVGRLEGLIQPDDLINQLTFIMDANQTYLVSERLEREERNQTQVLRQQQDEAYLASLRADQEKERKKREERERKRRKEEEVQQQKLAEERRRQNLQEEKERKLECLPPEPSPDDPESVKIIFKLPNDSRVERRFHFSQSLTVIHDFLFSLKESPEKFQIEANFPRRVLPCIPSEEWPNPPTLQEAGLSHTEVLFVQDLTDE
UniProt Q9Y421: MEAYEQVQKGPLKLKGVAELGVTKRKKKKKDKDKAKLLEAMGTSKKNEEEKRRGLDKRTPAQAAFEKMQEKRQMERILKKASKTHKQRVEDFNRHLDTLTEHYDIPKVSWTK
UniProt Q8WXB1: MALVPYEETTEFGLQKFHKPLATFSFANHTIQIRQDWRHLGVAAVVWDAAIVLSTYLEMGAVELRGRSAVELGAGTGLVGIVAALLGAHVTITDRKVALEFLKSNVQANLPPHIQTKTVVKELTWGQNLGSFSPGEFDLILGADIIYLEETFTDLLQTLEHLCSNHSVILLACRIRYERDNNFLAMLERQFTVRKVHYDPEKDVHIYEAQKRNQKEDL
UniProt P62942, whole entry: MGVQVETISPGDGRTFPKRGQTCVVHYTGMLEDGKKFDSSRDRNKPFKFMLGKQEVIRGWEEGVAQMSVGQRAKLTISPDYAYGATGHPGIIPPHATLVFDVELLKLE
UniProt Q9BYC5: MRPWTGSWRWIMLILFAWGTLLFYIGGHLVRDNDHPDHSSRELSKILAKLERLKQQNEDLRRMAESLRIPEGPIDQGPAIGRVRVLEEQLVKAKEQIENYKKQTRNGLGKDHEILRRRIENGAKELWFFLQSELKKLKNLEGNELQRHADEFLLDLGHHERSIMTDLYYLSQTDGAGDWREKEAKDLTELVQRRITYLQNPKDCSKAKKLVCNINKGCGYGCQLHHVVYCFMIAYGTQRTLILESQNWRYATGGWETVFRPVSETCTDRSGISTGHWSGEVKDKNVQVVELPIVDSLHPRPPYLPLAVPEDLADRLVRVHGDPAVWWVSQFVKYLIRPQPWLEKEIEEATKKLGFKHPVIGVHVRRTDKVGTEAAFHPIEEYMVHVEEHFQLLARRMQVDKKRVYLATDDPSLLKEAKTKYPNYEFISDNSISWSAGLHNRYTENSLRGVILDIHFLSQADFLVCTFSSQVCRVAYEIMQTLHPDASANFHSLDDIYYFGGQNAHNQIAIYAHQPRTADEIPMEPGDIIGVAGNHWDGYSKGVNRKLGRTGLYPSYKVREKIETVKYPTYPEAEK
UniProt Q8WZA9: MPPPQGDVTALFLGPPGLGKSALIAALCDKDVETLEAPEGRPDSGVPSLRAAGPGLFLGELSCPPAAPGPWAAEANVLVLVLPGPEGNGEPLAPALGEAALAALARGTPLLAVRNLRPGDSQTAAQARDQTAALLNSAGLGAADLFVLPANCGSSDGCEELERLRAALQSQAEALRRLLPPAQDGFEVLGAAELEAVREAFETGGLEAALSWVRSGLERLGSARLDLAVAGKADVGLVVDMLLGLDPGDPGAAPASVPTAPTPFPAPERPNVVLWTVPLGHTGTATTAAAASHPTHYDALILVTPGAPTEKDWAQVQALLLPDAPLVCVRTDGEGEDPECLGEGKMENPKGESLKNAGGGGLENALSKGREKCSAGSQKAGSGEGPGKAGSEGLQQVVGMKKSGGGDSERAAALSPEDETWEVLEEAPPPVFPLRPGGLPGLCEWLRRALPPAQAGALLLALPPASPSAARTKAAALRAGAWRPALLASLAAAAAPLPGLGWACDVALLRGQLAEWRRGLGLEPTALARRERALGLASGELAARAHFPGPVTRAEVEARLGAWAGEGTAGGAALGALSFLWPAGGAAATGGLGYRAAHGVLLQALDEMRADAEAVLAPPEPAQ

These targets were tested with COc1ccc(Cn2ccc3ccc(C(=O)NO)cc32)cc1 (assay: dose-dependent thermal stabilisation call (2D-TPP, DLPTP, 10% FDR) (binary (1 = stabilised)); higher = stabilised by the compound). Conditions: system: HL-60 intact cells; concentration range 0.04-10 µM.

Row | Target | dose-dependent thermal stabilisation call
1 | EXOC4 (UniProt Q96A65) | inactive: 0
2 | FMR1 (UniProt Q06787) | inactive: 0
3 | FTH1 (UniProt P02794) | inactive: 0
4 | FBXL18 (UniProt Q96ME1) | inactive: 0
5 | FAF2 (UniProt Q96CS3) | inactive: 0
6 | FAM32A (UniProt Q9Y421) | inactive: 0
7 | FAM119A (UniProt Q8WXB1) | inactive: 0
8 | FKBP1A (UniProt P62942) | inactive: 0
9 | FUT8 (UniProt Q9BYC5) | inactive: 0
10 | FKSG27 (UniProt Q8WZA9) | inactive: 0

Rewritten in CSV form: part of the list above
Row,Target,dose-dependent thermal stabilisation call
7,FAM119A (UniProt Q8WXB1),inactive: 0
8,FKBP1A (UniProt P62942),inactive: 0
